PubChem BioAssay AID686937 – Drosophila RNAi Screening Center | 2013
Aim: 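Genes in the fly needed for secretion of protein constitutively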 (primary screen). Cells: Drosophila S2 cells expressing secreted horseradish peroxidase. Knock-down reagent: long dsRNA against Drosophila genes. Time to read-out: about 5.5 days (5 days dsRNA, then 12 h reporter induction). Treatment: reporter expression induced after 5 days of dsRNA, read 12 h later; inducer not stated. Read-out: 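Chemiluminescent measurement of peroxidase in the medium 12 h after reporter induction, following 5 days of dsRNA, given as a z-score per plate; higher means more secretion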. Reading the numbers: z-score: higher = more reporter secreted into medium.
The deposit covers about 23,000 reagents; below is a random part of those that have a named target and a result. 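Reduced-secretion tags in replicate 1 do not always agree with the z-scores; no criterion for assigning the tags was given.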 Reagents against one gene are numbered here. A plus sign joins genes that one reagent is predicted to hit. Not given: the amount of reagent.

The first 3 entries, ahead of the listing:
| gene knocked down | dsRNA no. | z-score, replicate 1 | z-score, replicate 2 | z-score, replicate 3 | z-score, replicate 4 | phenotype, replicate 1 |
| --- | --- | --- | --- | --- | --- | --- |
| RPA3 (Replication protein A3) | 1 | 0.01 | 0.01 | – | – | – |
| Atg10 + CG12822 | 1 | 0.5 | 0.42 | – | – | – |
| dup (double parked) | 1 | -5.65 | -6.05 | – | – | reduced secretion |

The list itself, repeating the preview:
| gene knocked down | dsRNA no. | z-score, replicate 1 | z-score, replicate 2 | z-score, replicate 3 | z-score, replicate 4 | phenotype, replicate 1 |
| --- | --- | --- | --- | --- | --- | --- |
| RPA3 (Replication protein A3) | 1 | 0.01 | 0.01 | – | – | – |
| Atg10 + CG12822 | 1 | 0.5 | 0.42 | – | – | – |
| dup (double parked) | 1 | -5.65 | -6.05 | – | – | reduced secretion |
| rk (rickets) | 1 | -0.22 | 0.12 | – | – | – |
| Lamtor3 (Late endosomal/lysosomal adaptor, MAPK and MTOR activator 3) | 1 | -0.84 | -0.28 | – | – | – |
| CG9503 | 1 | 0.2 | 0.38 | – | – | – |
| CG9503 | 2 | -0.41 | -0.33 | – | – | – |
| Spn38F (Serpin 38F) | 1 | 0.4 | 0.3 | – | – | – |
| CG17298 | 1 | 0.43 | 0.47 | – | – | – |
| Nubp2 (NUBP iron-sulfur cluster assembly factor 2) | 1 | 0.46 | 0.51 | – | – | – |
| TwdlK (TweedleK) | 1 | -0.09 | -1.49 | – | – | – |
| Cpr100A (Cuticular protein 100A) | 1 | 0.01 | 0.17 | – | – | – |
| Obp56h (Odorant-binding protein 56h) | 1 | -0.27 | -0.41 | – | – | – |
| MstProx | 1 | 0.33 | 0.42 | – | – | – |
| MstProx | 2 | 0.25 | 0.62 | – | – | – |
| VhaAC45 (Vacuolar H[+] ATPase AC45 accessory subunit) | 1 | -0.46 | -0.72 | – | – | – |
| CG14244 | 1 | 0.29 | 0.32 | – | – | – |
| bwa (brain washing) | 1 | 0.5 | 0.21 | – | – | – |
| bwa (brain washing) | 2 | 0.29 | 0.39 | – | – | – |
| CNT2 (Concentrative nucleoside transporter 2) | 1 | 0.23 | 0.33 | – | – | – |
| Su(var)2-HP2 | 1 | 0.4 | 0.27 | – | – | – |
| Cda5 (Chitin deacetylase-like 5) | 1 | 0.84 | 0.34 | 0.56 | 0.27 | – |
| Cda5 (Chitin deacetylase-like 5) | 2 | 0.22 | 0.22 | – | – | – |
| Cda5 (Chitin deacetylase-like 5) | 3 | 0.1 | 0.07 | – | – | – |
| Cda5 (Chitin deacetylase-like 5) | 4 | 0.88 | 0.28 | – | – | – |
| CG3548 | 1 | 0.07 | 0.18 | – | – | – |
| Or10a (Odorant receptor 10a) | 1 | 0.35 | 0.37 | – | – | – |
| MtnF (Metallothionein F) | 1 | 0.18 | 0.18 | – | – | – |
| UQCR-Q (Ubiquinol-cytochrome c reductase ubiquinone-binding protein) | 1 | -1.57 | -0.34 | – | – | reduced secretion |
| RnrS (Ribonucleoside diphosphate reductase small subunit) | 1 | -1.9 | -2.25 | – | – | reduced secretion |
| CG4393 | 1 | 0.6 | 0.42 | – | – | – |
| CG34217 | 1 | -0.17 | – | – | – | – |
| Rh5 (Rhodopsin 5) | 1 | 0.36 | 0.28 | – | – | – |
| CG6324 | 1 | 0.37 | 0.58 | – | – | – |
| Socs16D (Suppressor of Cytokine Signaling at 16D) | 1 | -0.35 | -0.03 | – | – | – |
| Lrt (Leucine-rich tendon-specific protein) | 1 | 0.36 | 0.56 | – | – | – |
| sm (smooth) | 1 | -0.18 | 0.39 | – | – | – |
| sm (smooth) | 2 | 0.02 | -0.15 | – | – | – |
| CG11696 | 1 | 0.04 | 0.19 | – | – | – |
| CG7202 | 1 | 0.39 | 0.42 | – | – | – |
| Polr3B (RNA polymerase III subunit B) | 1 | -0.2 | -0.5 | – | – | – |
| Prp5 (pre-mRNA processing factor 5) | 1 | 0 | -0.52 | – | – | – |
| Pfk (Phosphofructokinase) | 1 | 0.1 | 0.33 | – | – | – |
| Larp4B (La-related protein 4B) | 1 | 0.27 | 0.17 | – | – | – |
| CG11349 | 1 | 0.22 | 0.47 | – | – | – |
| CG4291 | 1 | 0.15 | 0.48 | – | – | – |
| CG3842 | 1 | 0.46 | 0.44 | – | – | – |
| CG4459 | 1 | 0.57 | 0.62 | – | – | – |
| CG14650 | 1 | 0.29 | 0.45 | 0.77 | 0.7 | – |
| Sps1 (Selenophosphate synthetase 1) | 1 | -0.77 | -0.25 | – | – | – |
| CG14566 | 1 | 0.13 | 0.35 | – | – | – |
| Elal (Elastin-like) | 1 | 0.33 | 0.1 | – | – | – |
| CG3544 | 1 | 0.1 | 0.33 | – | – | – |
| CG31460 | 1 | 0.25 | 0.31 | – | – | – |
| CG1638 | 1 | 0.2 | 0.43 | – | – | – |
| APP-BP1 (beta-Amyloid precursor protein binding protein 1) | 1 | 0.41 | 0.38 | – | – | – |
| CG34404 | 1 | 0.23 | 0.49 | – | – | – |
| CG34404 | 2 | 0.32 | 0.19 | – | – | – |
| CG9192 | 1 | 0.45 | 0.27 | – | – | – |
| CG18269 | 1 | 0 | 0.04 | – | – | – |
| Snx27 (Sorting nexin 27) | 1 | 0.36 | 0.64 | – | – | – |
| Snx27 (Sorting nexin 27) | 2 | 0.22 | 0.16 | – | – | – |
| Snx27 (Sorting nexin 27) | 3 | 0.27 | 0.54 | – | – | – |
| Gga | 1 | 0.26 | 0.15 | – | – | – |
| Sema1a (Semaphorin 1a) | 1 | 0.38 | 0.19 | – | – | – |
| GstE10 (Glutathione S transferase E10) | 1 | 0.17 | 0.35 | – | – | – |
| Sirt7 (Sirtuin 7) | 1 | 0.54 | 0.69 | – | – | – |
| robo2 (roundabout 2) | 1 | 0.29 | 0.25 | – | – | – |
| robo2 (roundabout 2) | 2 | 0.44 | 0.2 | – | – | – |
| robo2 (roundabout 2) | 3 | 0.17 | 0.24 | – | – | – |
| robo2 (roundabout 2) | 4 | 0.18 | 0.44 | – | – | – |
| Gmppa (GDP-mannose pyrophosphorylase A) | 1 | 0.12 | -0.32 | – | – | – |
| CG15461 | 1 | 0.48 | 0.27 | – | – | – |
| CHKov1 (CHK domain ov1) | 1 | -0.1 | 0.28 | – | – | – |
| CHKov1 (CHK domain ov1) | 2 | -0.33 | -0.05 | – | – | – |
| CHKov1 (CHK domain ov1) | 3 | 0 | 0.02 | – | – | – |
| CHKov1 (CHK domain ov1) | 4 | 0.42 | 0.36 | – | – | – |
| Iyd (Iodotyrosine deiodinase) | 1 | 0.44 | 0.32 | – | – | – |
| Iyd (Iodotyrosine deiodinase) | 2 | 0.21 | 0.19 | – | – | – |
| MED24 (Mediator complex subunit 24) | 1 | -5.61 | -4.5 | – | – | reduced secretion |
| Npc2h (Niemann-Pick type C-2h) | 1 | 0.16 | 0.32 | – | – | – |
| beta4GalNAcTB (beta1,4-N-acetylgalactosaminyltransferase B) | 1 | 0.48 | 0.62 | – | – | – |
